In data set [1] the target is T1, phiW39 deltaN66 Ref R86T,A93T,N107E,A115S (bacteriophage phiW39) (UniProt P35926).
T1 sequence (looked up, limits assumed): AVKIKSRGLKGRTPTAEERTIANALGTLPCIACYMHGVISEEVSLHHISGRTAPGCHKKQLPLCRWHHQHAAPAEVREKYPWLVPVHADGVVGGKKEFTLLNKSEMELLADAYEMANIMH
The data set can be described thus: fluorescence polarization. The settings on record: 25 mM Tris-acetate pH 8.5, 3 mM potassium glutamate, 15 mM magnesium acetate, 5% w/v glycerol, 2 nM DNA, Ref 0.5-10000 nM, 15 min at room temperature, read at 25 C, recombinant protein. In general terms: Fluorescence polarisation rises when a labelled molecule tumbles more slowly, as on binding a larger partner.

In data set [2] the target is T2, phiW39 deltaN59 Ref R86T,A93T,N107E,A115S (bacteriophage phiW39) (UniProt P35926).
T2 sequence (looked up, limits assumed): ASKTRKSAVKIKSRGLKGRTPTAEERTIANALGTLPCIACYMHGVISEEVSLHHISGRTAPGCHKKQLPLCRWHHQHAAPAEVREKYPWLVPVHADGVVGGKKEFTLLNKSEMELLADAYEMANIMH
As to the kind of experiment: fluorescence polarization. The note with it: 25 mM Tris-acetate pH 8.5, 3 mM potassium glutamate, 15 mM magnesium acetate, 5% w/v glycerol, 2 nM DNA, Ref 0.5-10000 nM, 15 min at room temperature, read at 25 C; recombinant protein; label: 5' 6-FAM on strand 1.

A weaker result is weaker than the reference pair of the same experiment. Protein sequences can lack the tags named with them.

As for “CAGAAGTAAGTTGGCCGCAGTGTTATCACTCATGGTTATGGCAGCACTGCATAATTCTCTTACTGTCATGC [AJM25 71mer ssDNA]”, in data set [1] (saturation not attainable, label: 5' 6-FAM, single-stranded DNA), the binding result is on record as “binds more weakly”. In the case of “CAGAAGTAAGTTGGCCGCAGTGTTATCACTCATGGTTATGGCAGCACTGCATAATTCTCTTACTGTCATGC (double strand) [AJM25/AJG52 71 bp dsDNA]”, the binding result in data set [1] (label: 5' 6-FAM on strand 1) and in data set [2] was “binds more weakly” each time.

The record behind these values is PMC4330346, “Function of the N-terminal segment of the RecA-dependent nuclease Ref” (Nucleic Acids Research, 2015).
